Laboratory results as given in the supplement of paper PMC12595434, “Development of retinoid nuclear receptor pathway antagonists through targeting aldehyde dehydrogenase 1A3” (iScience, 2025).
The other results are listed elsewhere or left out. Single values of this set are uncertain.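 Many melting curves are irregular; where none melted, Tm was taken as 64 °C.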

Protein sequences, listed by entry. Tags and fused reporters are not part of them. Lines headed by an entry give the natural chain unless they say otherwise; changes in a name come on top.
UniProt P30154, whole entry: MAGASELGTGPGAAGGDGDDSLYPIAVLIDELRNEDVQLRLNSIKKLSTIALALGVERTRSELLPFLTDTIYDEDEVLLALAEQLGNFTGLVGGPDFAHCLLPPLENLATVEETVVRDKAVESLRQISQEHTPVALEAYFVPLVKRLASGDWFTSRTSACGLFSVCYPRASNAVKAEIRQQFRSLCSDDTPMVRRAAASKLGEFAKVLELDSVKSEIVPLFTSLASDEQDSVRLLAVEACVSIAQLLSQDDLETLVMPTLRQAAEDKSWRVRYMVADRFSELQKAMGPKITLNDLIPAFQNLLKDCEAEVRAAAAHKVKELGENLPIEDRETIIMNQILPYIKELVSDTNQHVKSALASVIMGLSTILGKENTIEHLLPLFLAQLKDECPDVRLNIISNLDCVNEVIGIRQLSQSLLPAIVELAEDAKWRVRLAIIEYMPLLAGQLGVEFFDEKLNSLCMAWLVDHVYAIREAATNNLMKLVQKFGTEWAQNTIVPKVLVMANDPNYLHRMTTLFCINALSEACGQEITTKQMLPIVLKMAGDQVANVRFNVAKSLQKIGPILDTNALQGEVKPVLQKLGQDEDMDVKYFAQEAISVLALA
UniProt P30711: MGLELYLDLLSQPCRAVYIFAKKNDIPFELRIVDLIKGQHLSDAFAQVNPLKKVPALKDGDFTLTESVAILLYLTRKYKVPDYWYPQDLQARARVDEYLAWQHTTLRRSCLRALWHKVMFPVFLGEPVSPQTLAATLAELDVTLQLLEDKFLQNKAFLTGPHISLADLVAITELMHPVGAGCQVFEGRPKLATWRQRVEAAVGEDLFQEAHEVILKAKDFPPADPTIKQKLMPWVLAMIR
UniProt P34947, whole entry, looked up: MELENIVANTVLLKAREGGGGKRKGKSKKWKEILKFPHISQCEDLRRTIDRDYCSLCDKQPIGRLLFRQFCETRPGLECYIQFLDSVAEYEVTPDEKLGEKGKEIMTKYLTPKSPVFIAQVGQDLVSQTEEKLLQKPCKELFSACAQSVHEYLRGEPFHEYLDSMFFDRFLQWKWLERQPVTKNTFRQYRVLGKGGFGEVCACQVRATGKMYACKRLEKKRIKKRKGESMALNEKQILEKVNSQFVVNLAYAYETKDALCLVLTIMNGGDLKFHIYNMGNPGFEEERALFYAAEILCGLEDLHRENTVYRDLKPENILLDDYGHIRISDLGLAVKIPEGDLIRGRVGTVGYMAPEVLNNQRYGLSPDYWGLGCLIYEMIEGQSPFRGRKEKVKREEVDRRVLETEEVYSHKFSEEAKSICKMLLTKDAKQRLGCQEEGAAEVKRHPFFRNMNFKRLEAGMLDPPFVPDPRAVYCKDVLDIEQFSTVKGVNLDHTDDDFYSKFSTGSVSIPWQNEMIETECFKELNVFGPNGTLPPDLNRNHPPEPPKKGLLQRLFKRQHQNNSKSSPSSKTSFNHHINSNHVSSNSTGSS
UniProt P22413: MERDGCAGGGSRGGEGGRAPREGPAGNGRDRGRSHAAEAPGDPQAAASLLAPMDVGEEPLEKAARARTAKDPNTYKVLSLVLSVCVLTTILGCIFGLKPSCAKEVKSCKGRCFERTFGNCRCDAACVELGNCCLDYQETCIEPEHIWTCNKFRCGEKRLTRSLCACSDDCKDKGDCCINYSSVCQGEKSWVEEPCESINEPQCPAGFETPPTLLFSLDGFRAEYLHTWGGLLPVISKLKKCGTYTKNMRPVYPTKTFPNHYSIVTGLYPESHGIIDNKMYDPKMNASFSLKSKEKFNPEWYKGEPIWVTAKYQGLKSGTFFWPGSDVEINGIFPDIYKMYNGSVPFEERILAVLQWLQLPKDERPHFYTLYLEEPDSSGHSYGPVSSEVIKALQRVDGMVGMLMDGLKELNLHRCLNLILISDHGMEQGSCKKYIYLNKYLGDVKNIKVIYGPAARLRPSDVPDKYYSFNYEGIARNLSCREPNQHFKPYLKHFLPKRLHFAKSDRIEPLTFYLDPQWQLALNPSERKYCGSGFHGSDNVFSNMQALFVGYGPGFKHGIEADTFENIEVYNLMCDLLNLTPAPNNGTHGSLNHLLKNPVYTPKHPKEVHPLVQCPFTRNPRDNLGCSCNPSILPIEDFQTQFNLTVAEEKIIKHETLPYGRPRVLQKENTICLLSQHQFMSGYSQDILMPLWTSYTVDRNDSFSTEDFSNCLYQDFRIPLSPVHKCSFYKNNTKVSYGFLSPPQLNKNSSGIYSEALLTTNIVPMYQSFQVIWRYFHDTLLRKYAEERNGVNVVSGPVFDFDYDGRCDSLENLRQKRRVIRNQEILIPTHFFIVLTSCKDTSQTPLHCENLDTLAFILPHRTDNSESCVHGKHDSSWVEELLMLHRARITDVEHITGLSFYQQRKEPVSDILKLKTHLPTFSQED
UniProt P33993, whole entry: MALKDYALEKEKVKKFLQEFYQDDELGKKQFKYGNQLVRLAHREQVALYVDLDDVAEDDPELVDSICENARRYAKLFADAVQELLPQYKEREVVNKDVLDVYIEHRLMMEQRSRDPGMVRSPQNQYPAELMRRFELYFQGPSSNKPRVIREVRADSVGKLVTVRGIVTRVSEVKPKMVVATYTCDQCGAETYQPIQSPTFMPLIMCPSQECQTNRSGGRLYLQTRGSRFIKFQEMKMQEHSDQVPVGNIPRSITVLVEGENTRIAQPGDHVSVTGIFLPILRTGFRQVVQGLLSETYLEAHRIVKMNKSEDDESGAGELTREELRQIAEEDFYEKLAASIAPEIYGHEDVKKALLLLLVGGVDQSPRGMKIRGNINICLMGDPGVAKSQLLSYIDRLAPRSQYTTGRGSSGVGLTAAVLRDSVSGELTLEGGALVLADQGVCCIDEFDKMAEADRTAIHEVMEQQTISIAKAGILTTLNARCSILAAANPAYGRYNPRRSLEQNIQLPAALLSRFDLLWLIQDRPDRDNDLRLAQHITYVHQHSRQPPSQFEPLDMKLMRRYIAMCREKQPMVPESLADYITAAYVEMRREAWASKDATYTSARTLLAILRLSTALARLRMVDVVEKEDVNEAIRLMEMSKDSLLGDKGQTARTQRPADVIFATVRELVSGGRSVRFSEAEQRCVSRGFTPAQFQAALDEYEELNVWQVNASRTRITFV
UniProt P30837: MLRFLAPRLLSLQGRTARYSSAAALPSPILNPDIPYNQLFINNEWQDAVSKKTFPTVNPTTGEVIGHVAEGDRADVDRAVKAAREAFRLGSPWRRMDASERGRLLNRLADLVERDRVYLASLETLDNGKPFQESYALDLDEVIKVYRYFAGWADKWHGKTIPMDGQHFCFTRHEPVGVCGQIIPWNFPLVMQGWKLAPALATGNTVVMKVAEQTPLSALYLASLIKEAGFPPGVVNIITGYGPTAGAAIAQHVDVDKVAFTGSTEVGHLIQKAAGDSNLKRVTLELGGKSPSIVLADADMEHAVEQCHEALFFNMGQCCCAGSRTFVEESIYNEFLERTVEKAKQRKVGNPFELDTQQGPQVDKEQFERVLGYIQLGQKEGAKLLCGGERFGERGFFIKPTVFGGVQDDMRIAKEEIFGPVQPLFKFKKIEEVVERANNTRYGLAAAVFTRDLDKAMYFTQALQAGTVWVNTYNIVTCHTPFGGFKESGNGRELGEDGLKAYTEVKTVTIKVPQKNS
UniProt P22830: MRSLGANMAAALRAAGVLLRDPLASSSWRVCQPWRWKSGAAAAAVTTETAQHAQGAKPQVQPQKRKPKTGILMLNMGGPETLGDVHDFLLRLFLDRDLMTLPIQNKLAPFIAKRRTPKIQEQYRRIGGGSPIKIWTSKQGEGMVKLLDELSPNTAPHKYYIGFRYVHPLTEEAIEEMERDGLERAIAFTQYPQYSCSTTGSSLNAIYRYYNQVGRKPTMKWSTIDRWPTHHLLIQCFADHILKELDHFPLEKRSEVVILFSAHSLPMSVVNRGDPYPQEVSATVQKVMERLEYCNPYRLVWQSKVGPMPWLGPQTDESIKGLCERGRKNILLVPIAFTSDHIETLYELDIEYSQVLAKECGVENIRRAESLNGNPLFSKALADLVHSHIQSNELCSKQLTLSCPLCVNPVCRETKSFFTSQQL
UniProt P31153, whole entry, looked up: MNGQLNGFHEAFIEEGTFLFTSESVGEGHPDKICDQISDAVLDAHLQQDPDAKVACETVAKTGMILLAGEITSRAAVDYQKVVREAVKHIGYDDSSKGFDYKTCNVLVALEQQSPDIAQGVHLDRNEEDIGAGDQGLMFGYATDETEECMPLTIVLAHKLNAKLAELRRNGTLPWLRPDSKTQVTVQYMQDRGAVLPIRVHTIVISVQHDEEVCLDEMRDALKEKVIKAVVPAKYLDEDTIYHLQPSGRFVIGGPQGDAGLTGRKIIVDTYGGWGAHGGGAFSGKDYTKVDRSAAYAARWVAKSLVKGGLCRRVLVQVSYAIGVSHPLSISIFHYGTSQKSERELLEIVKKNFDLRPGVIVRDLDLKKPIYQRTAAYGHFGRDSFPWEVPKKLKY
UniProt P35251: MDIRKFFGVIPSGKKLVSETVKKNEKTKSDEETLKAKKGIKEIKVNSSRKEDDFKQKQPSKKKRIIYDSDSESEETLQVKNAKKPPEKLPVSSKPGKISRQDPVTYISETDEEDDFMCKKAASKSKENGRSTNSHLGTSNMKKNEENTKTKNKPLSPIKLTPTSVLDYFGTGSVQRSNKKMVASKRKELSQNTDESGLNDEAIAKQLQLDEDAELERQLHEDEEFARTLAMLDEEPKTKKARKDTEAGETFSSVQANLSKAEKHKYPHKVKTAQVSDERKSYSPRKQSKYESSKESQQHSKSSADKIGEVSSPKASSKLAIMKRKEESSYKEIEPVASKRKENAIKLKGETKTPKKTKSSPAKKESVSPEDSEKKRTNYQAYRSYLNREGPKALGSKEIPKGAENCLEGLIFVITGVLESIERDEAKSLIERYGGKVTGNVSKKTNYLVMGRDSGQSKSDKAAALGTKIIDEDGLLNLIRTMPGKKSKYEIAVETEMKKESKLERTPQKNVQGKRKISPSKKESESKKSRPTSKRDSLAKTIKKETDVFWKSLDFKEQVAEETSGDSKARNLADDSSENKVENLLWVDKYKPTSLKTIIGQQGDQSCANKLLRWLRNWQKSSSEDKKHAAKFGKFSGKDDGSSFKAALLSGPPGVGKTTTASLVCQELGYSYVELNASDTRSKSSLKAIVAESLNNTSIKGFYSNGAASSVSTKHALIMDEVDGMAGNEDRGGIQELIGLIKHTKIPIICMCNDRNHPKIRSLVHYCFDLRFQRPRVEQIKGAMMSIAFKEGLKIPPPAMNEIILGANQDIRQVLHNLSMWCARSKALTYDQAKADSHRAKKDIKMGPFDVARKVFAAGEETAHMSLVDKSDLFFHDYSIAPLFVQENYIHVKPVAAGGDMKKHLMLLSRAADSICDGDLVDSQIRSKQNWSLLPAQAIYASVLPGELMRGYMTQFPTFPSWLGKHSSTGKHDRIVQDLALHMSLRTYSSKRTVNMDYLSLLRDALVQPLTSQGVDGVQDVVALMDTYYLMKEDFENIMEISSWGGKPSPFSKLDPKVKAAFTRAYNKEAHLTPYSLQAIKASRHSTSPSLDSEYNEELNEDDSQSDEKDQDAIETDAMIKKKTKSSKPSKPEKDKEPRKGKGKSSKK
UniProt P32856: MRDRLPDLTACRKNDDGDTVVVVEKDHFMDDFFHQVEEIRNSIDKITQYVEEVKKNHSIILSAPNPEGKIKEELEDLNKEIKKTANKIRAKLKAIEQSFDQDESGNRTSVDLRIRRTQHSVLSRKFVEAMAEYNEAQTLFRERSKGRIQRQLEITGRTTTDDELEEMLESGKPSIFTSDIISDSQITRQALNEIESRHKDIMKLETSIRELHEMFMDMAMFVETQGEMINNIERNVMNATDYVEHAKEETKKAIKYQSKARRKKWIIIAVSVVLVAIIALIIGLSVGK
UniProt P30041: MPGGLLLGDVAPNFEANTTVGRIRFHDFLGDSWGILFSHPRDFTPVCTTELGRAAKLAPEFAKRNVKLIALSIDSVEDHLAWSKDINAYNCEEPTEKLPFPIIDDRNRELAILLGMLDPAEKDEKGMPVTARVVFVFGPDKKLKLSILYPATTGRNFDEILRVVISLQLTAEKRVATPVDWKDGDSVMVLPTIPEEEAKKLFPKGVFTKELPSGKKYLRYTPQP
UniProt P23381: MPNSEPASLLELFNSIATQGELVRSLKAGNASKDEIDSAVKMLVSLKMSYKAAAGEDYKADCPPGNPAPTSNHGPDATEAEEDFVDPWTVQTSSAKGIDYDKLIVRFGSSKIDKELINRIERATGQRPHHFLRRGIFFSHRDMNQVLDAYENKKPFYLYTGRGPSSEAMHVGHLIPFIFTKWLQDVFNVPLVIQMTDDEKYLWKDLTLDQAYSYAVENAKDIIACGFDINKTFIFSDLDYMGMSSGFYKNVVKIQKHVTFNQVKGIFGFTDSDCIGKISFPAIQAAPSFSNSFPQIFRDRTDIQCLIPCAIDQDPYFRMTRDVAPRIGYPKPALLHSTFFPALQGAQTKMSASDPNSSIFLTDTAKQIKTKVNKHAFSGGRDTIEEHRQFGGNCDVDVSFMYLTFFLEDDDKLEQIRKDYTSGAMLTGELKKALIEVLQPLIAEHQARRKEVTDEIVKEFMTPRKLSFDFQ

Compound: CCc1cnccc1C(=O)Nc1cc2c(cc1F)NC(=O)CC2
Assay: melting temperature shift (DMSO Tm minus MBE1-treated Tm) in cellular thermal proteome profiling; higher = less thermal stabilization by MBE1 (negative = stabilized by MBE1)
Settings: A375

| Target | melting temperature shift (MBE1 concentration: 100 nM) [°C] | melting temperature shift (MBE1 concentration: 1 uM) [°C] |
| --- | --- | --- |
| HNRNPH1 (UniProt P31943) | -0.692 | -0.452 |
| PPP2R1B (UniProt P30154) | -1.04 | -0.403 |
| CPS1 (UniProt P31327) | 0.0671 | 1.26 |
| UniProt P27361 | 1.03 | 1.03 |
| GSTT1 (UniProt P30711) | -3.14 | -3.02 |
| GRK5 (UniProt P34947) | 1.76 | 0.623 |
| UniProt P22413 | -1.95 | 2.28 |
| GPX4 (UniProt P36969) | -1.15 | -0.159 |
| PSMC2 (UniProt P35998) | -1.08 | 0.543 |
| ALDH4A1 (UniProt P30038) | -0.177 | -0.69 |
| AHCY (UniProt P23526) | -0.157 | -0.0435 |
| CHML (UniProt P26374) | -0.798 | -0.208 |
| TCEA1 (UniProt P23193) | -1.44 | -0.778 |
| CTNNA1 (UniProt P35221) | -0.557 | 0.181 |
| CPT2 (UniProt P23786) | 0.117 | 0.437 |
| MCM7 (UniProt P33993) | 0.837 | 0.0183 |
| RPA3 (UniProt P35244) | -0.36 | 2.1 |
| TTK (UniProt P33981) | -1.04 | -0.988 |
| MAN1A1 (UniProt P33908) | -0.385 | -0.452 |
| ALDH1B1 (UniProt P30837) | -0.651 | 0.0268 |
| UniProt P33764 | -0.598 | 0.305 |
| CHM (UniProt P24386) | -0.194 | -0.288 |
| STIP1 (UniProt P31948) | -0.696 | -1.08 |

| Target | melting temperature shift (MBE1 concentration: 100 nM) [°C] | melting temperature shift (MBE1 concentration: 1 uM) [°C] |
| --- | --- | --- |
| FECH (UniProt P22830) | -0.926 | 0.421 |
| PPP2R1A (UniProt P30153) | -0.402 | 0.443 |
| NF1 (UniProt P21359) | 0.0183 | -0.403 |
| COPB2 (UniProt P35606) | -0.4 | 0.0611 |
| MAT2A (UniProt P31153) | -1.66 | 0.372 |
| SHC1 (UniProt P29353) | -1.03 | 0.446 |
| ATP2B4 (UniProt P23634) | -1.29 | 0.885 |
| TPP2 (UniProt P29144) | -1.04 | -0.116 |
| ABCC1 (UniProt P33527) | -0.637 | 0.134 |
| ACAT1 (UniProt P24752) | -1.2 | 0.226 |
| U2AF2 (UniProt P26368) | 1.3 | 0.47 |
| RRM2 (UniProt P31350) | -2.64 | -2.46 |
| RFC1 (UniProt P35251) | -0.634 | -0.474 |
| STX2 (UniProt P32856) | -0.295 | -0.0738 |
| POLR2I (UniProt P36954) | -0.749 | 1.34 |
| GTF2F1 (UniProt P35269) | -0.952 | -0.11 |
| SCP2 (UniProt P22307) | -2.22 | -2.25 |
| MPG (UniProt P29372) | -0.416 | 0.656 |
| PRDX6 (UniProt P30041) | -0.0335 | 0.0939 |
| WARS (UniProt P23381) | -1.76 | -0.354 |
| RPL4 (UniProt P36578) | -0.513 | 0.775 |
| AXL (UniProt P30530) | 0.629 | 0.342 |
| UniProt P28749 | 0.128 | 0.0705 |

Record cards (already shown).
NF1 (UniProt P21359) in the list: melting temperature shift (MBE1 concentration: 100 nM) [°C]: 0.0183; melting temperature shift (MBE1 concentration: 1 uM) [°C]: -0.403
UniProt P28749 in the list: melting temperature shift (MBE1 concentration: 100 nM) [°C]: 0.128; melting temperature shift (MBE1 concentration: 1 uM) [°C]: 0.0705
AXL (UniProt P30530) in the list: melting temperature shift (MBE1 concentration: 100 nM) [°C]: 0.629; melting temperature shift (MBE1 concentration: 1 uM) [°C]: 0.342
